{
  "sequences": {"note": "The chains behind the UniProt entries cited, without tags or fusion partners.", "UniProt O75821, whole entry": "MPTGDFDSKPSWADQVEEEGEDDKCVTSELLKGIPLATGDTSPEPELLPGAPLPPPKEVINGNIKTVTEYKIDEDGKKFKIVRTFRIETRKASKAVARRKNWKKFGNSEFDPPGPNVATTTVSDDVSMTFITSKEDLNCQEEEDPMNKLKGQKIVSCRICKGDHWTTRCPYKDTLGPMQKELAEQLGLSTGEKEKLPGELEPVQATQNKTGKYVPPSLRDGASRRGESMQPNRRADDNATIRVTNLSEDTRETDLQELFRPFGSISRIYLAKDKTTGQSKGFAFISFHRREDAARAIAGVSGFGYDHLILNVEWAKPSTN"},
  "source": "paper PMC5996148",
  "assay_in_all_cases": "protein microarray (ProtoArray v5.0), streptavidin-Alexa Fluor 647",
  "conditions_in_all_cases": "3'-biotin; 20 mM Tris (pH 7.5), 5 mM MgCl2, 100 mM KCl, 0.1% Tween-20, A/T-rich and random oligonucleotide blockers; temperature not stated; high values mean tight binding",
  "key": {"EBF1 (human)": {"system": "EBF1 (human)"}, "ECE1 (human)": {"system": "ECE1 (human)"}, "ECE2 (human)": {"system": "ECE2 (human)"}, "EDF1": {"biological_target": "T1, EDF1 (UniProt O60869)", "T1 sequence": "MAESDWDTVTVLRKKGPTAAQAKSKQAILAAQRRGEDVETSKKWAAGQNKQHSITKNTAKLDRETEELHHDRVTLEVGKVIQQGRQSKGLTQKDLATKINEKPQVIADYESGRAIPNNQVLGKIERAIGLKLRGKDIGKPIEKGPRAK"}, "EFCBP1 (human)": {"system": "EFCBP1 (human)"}, "EFTUD2 (human)": {"system": "EFTUD2 (human)"}, "EGFL8 (human)": {"system": "EGFL8 (human)"}, "EIF2B2 (human)": {"system": "EIF2B2 (human)"}, "EIF3M (human)": {"system": "EIF3M (human)"}, "EIF3S4": {"biological_target": "EIF3S4 (UniProt O75821)"}},
  "note": "Some of the results follow. For some of these results: The source does not settle which construct or isoform was used.",
  "data": [
    {"sequence": "GGTGACAGGGGTATGGGGAGGGG [G4-2 biotinylated (Ct1)]", "values": [
      {"measurement": "binding signal", "setting": "EBF1 (human)", "value": -0.378, "unit": "z-score"},
      {"measurement": "binding signal", "setting": "ECE1 (human)", "value": -0.38, "unit": "z-score"},
      {"measurement": "binding signal", "setting": "ECE2 (human)", "value": -0.391, "unit": "z-score"},
      {"measurement": "binding signal", "setting": "EDF1", "value": 3.22, "unit": "z-score"},
      {"measurement": "binding signal", "setting": "EFCBP1 (human)", "value": -0.385, "unit": "z-score"},
      {"measurement": "binding signal", "setting": "EFTUD2 (human)", "value": -0.376, "unit": "z-score"},
      {"measurement": "binding signal", "setting": "EGFL8 (human)", "value": -0.374, "unit": "z-score"},
      {"measurement": "binding signal", "setting": "EIF2B2 (human)", "value": -0.401, "unit": "z-score"},
      {"measurement": "binding signal", "setting": "EIF3M (human)", "value": -0.376, "unit": "z-score"},
      {"measurement": "binding signal", "setting": "EIF3S4", "value": 5.71, "unit": "z-score"}
    ]}
  ]
}
